In article PMC8062868:

How the values were obtained:
[1] = molecular target: ScbR (gamma-butyrolactone receptor) (Streptomyces coelicolor A3(2)) (UniProt Q7AKF1); assay: EMSA; settings: 100 ng herring sperm DNA, EMSA: 10 mM Tris-HCl pH 7.5, 50 mM KCl, 1 mM DTT (1x LI-COR buffer) plus DTT/Tween 20 mix, 16 ul, 20 min, room temperature, recombinant protein, residues 1-215, label: IRDye 800, probe letters rebuilt from the primers and the genome, part of a longer molecule
[2] = tested on: ScbR2 (Streptomyces coelicolor A3(2)); assay: EMSA; settings: 100 ng herring sperm DNA, EMSA: 10 mM Tris-HCl pH 7.5, 50 mM KCl, 1 mM DTT (1x LI-COR buffer) plus DTT/Tween 20 mix, 16 ul, 20 min, room temperature, recombinant protein, label: IRDye 800, probe letters rebuilt from the primers and the genome, part of a longer molecule

Sequence	binding result [1]	binding result [2]
GCCGTCGTCGCCGACGATCTCGAACGGGCCCATGAGATTGAACCGCACTGCCTCACACTCCTGTCCCGGCACACGGTTTGCCGTGCCGCGGATGTCGTACGTACACGGAGATCCGGCCGCCGCGGAACGCGGGACTCACCG (double strand) [pcpkN-a]	binds	no binding
GCCGTCGTCGCCGACGATCTCGAACGGGCCCATGAGATTGAACCGCACTGCCTCACACTCCTGTCCCGGCACACGGTTTGCCGTGCCGCGGATGTCGTACGTACACGGAGATCCGGCCGCCGCGGAACGCGGGACTCACCGGCCGCCGGGTGGCGGGACCGCGGAGTCGAGAGAAGAGACCGAGCGGTCCGTTTCATTGTGGGCCAGGAGTACCCACTGGGGACTCAC (double strand) [pcpkN]	binds	binds

For at least one entry, the source does not settle the construct or the ends of the probe. For some of these results: Negatives hold for the conditions tested.
